Structures were worked out from names or drawings and are uncertain.
How the values were obtained:
NTR1 [1] = biological target: T1, NTR1 (Homo sapiens (Human), UniProt P30989); assay: Radioligand binding assay NTR1 (example part I); conditions: 0.05 nM 125I-(Tyr3-neurotensin), 60 min at 4° C.
NTR1 [2] = biological target: T1, NTR1; assay: Functional Ca2+ mobilisation assay (example part I); type: cell-based

Sequences of proteins named here, by UniProt entry; tags and fusion partners are left off.
UniProt P30989, whole entry: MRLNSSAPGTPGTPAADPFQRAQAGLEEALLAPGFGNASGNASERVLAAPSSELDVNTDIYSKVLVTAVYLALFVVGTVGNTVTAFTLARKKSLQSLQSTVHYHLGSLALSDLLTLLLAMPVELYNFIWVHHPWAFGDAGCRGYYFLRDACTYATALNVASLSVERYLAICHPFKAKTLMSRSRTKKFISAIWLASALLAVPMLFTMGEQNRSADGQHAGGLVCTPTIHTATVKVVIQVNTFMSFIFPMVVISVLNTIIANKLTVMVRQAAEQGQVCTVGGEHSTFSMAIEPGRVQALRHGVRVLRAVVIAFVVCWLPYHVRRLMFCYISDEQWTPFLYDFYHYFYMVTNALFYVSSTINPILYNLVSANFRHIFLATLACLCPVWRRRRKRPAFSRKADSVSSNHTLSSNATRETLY

COc1cccc(OC)c1-c1cc(C(=O)NC2(C(=O)O)C3CC4CC(C3)CC2C4)nn1-c1ccc(C(=O)N(C)CCCN(C)CCCN(C)C(=O)CCC(=O)NCCCOCCOCCOCCCNC(=O)CCCC[C@@H]2SC[C@@H]3NC(=O)N[C@@H]32)cc1C(C)C (stereo partly drawn)
IC50 (NTR1 [1]): 1.2 nM
EC50 (NTR1 [2]; read-out: Agonistic Effect EC50, agonist assay, * bell-shaped curves, EC50 from ascending part of the curve): > 50000 nM
IC50 (NTR1 [2]; read-out: Antagonistic Effect IC50, antagonist assay, 30 min pre-incubation, EC80-concentration of agonist): 10 nM

From patent US10799605B2 (3B PHARMACEUTICALS GMBH, priority 2014, dated 2020)
